By UniProt entry, the sequences of proteins in these tests, tags left out.
UniProt Q9Y5N1, whole entry: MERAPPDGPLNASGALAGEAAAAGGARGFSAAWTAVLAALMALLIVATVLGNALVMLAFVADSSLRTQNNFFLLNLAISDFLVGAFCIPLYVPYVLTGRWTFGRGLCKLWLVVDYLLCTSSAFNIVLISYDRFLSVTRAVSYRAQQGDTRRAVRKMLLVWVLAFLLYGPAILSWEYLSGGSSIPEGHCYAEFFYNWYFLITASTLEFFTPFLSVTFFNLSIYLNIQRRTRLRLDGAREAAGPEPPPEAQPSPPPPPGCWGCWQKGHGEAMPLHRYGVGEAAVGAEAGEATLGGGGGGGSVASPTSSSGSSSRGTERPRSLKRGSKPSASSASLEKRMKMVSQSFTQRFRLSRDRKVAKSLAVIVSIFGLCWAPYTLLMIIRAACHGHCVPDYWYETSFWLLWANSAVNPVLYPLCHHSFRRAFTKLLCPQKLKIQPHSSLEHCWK

According to patent publication US8691804B2 (Evotec AG, priority 2008, dated 2014):

Target: human H3 receptors (Homo sapiens, UniProt Q9Y5N1)
Test: cAMP quantification assay for human H3 receptor testing
Conditions: read-out: Potency range (IC50 values); CHO-K1 cells expressing human H3 receptors; inhibition of agonist-induced decrease of cAMP; 100 nM histamine, 10 μM forskolin
Experimental: CHO—K1 cell line expressing human H3 receptors were purchased from Euroscreen (Gosselies, Belgium, Cat. no.: ES-392-C)
Human H3 receptor-expressing cell-lines were grown in Ham's F12 [Sigma, Cat. no. N6658], supplemented with 10% FBS [Sigma, Cat. no. F9665], 400 μg/ml G418 [Sigma, Cat. no. N1876] and 250 μg/ml Zeocin [Invitrogen, Cat. no. 46-0509]) according to the protocol provided by Euroscreen.
The assay measures the ability of test compounds to inhibit Histamine receptor agonist-induced decrease of intracellular free cAMP (receptor is Gi coupled).
Specifically, a cAMP quantification assay system from DiscoveRx (cAMP XS+; Cat. no. 90-0075) was used.
For the cAMP assay, confluent cells were detached from the culture vessels with 1× trypsin-EDTA solution (Sigma), and seeded into 384-well Costar plates (white, clear bottom, Cat. no. 3707) at a density of 10,000 cells per well. Cells were seeded in a volume of 50 μl in medium without antibiotics and incubated overnight in a humidified atmosphere with 5% CO2 at 37° C. The cAMP assay was performed according to the protocol provided by DiscoveRx. […]
After the incubation with the agonist, 5 μl/well cAMP XS antibody solution was added followed by 20 μl/well Gal/EII/Lysis (1:5:19)+ED (1:1). […] The luminescence was developed for approximately three hours at room temperature and the plates were read out using a ‘BMG Novostar’ plate reader. […]

SMILES: Cc1nccc(Cl)c1OC1CN(C(=O)N2CCCN(C3CCC3)CC2)C1
- IC50: < 100 nM

The structures given here were assigned with low confidence; some may be wrong.
